# Experimental data from patent publication US20040097478A1, “Remedies for retina and choroid diseases containing steroids as the active ingredient” (SANTEN PHARMACEUTICAL O., LTD, priority 2001, published 2004).
# Where two headings read alike, the source gives them in different places.
# Test system: Laser-induced rat choroidal neovascularization models
# Conditions: for Choroidal neovascularization inhibition rate (%): versus vehicle administration group
# Procedure: A one ml/kg mixed solution (7:1) of a 5% ketamine hydrochloride injection and a 2% xylazine hydrochloride injection was administered intramuscularly to rats to anesthetize them systemically. A 0.5% tropicamide-0.5% phenylephrine hydrochloride ophthalmic solution was instilled into the eyes to cause mydriasis, and then photocoagulation was performed with a krypton laser photocoagulation apparatus. The photocoagulation was carried out in a posterior section of ocular fundus at eight spots per eye sparsely avoiding thick retinal vessels and focusing on the retinal depth (coagulation conditions: spot size: 100 μm, output: 100 mW, coagulation time: 0.1 sec). After the photocoagulation, the ocular fundus was photographed to confirm laser irradiation sites.
# Triamcinolone was suspended in the phosphate buffers as a comparative group so that its concentrations were 0.2 mg/ml and 2 mg/ml, and each suspension was administered similarly. The phosphate buffer was administered similarly as a vehicle administration group.
# On seventh day after the photocoagulation, 0.1 ml of 10% fluorescein was injected from carotid vein, and fluorescein fundus angiography was performed. In the fluorescein fundus angiography, a spot where fluorescence diapedesis was not observed was judged as negative, and a spot where fluorescence diapedesis was observed was judged as positive. Each neovascularization exhibition rate was obtained by calculating the ratio of a positive spot number to eight spots irradiated with the laser, and each choroidal neovascularization inhibition rate was calculated according to the following equation.
# Choroidal neovascularization inhibition rate (%)=(Ao−Ax)/Ao×100
# Ao: Neovascularization exhibition rate of vehicle administration group
# Ax: Neovascularization exhibition rate of drug administration group
smiles,measurement,setting,value
"C[C@H]1C[C@H]2[C@@H]3CCC4=CC(=O)C=C[C@]4(C)[C@@]3(F)[C@@H](O)C[C@]2(C)[C@@]1(O)C(=O)COP(=O)([O-])[O-].[Na+].[Na+] [Betamethasone sodium phosphate, betamethasone sodium phosphate]",Inhibitory effect on choroidal neovascularization relative to triamcinolone,10 μg/eye/day,about three times stronger
same,Choroidal neovascularization inhibition rate (%),10 μg/eye/day subconjunctival for seven days,36.3%
same,Choroidal neovascularization inhibition rate (%),100 μg/eye/day subconjunctival for seven days,79.4%
